Data as given in PubChem BioAssay AID652272 (Drosophila RNAi Screening Center, 2013).
The deposit covers about 21,000 reagents; shown is an unselected part of those with a known target gene and a result. Over the whole deposit, 503 (2.4%) were called active. 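Raw plate light values, not normalised; calls rest on replicate z-scores that were not deposited; hits include reporter decreases as well as increases.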 The record does not give: the amount of reagent, the time to read-out.

- Purpose: 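Finding fly genes that regulate Hedgehog signal transduction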 (primary screen)
- Cells: Drosophila clone 8 (Cl8) cells
- Reagent: long dsRNA against Drosophila genes
- Read-out: 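Plate reader light from a firefly reporter under a ptc promoter fragment that responds to Hedgehog, with Renilla light as transfection reference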
- Scale: firefly Hh reporter signal: higher = more ptc reporter light; Renilla reference signal: higher = more Renilla control light
- Hit rule: 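Hit when the z-score averaged over two replicates is under -2 or over +3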
- Meaning of the calls: active = hit: reporter lowered or raised; inactive = not a hit

CG5758 [DRSC02889]
- firefly Hh reporter signal, replicate 1: 63243
- firefly Hh reporter signal, replicate 2: 5.18e5
- firefly Hh reporter signal, replicate 3: 34685
- Renilla reference signal, replicate 1: 2369
- Renilla reference signal, replicate 2: 31357
- Call: active

CG5758 [DRSC02890]
- firefly Hh reporter signal, replicate 1: 86106
- firefly Hh reporter signal, replicate 2: 60249
- Renilla reference signal, replicate 1: 2589
- Renilla reference signal, replicate 2: 5418
- Call: inactive

CG5612 [DRSC15844]
- firefly Hh reporter signal, replicate 1: 1.03e5
- firefly Hh reporter signal, replicate 2: 95936
- Renilla reference signal, replicate 1: 2051
- Renilla reference signal, replicate 2: 2368
- Call: inactive

CG6168 [DRSC10596]
- firefly Hh reporter signal, replicate 1: 18778
- firefly Hh reporter signal, replicate 2: 44763
- firefly Hh reporter signal, replicate 3: 55701
- Renilla reference signal, replicate 1: 4551
- Renilla reference signal, replicate 2: 4069
- Call: inactive

DptA [DRSC07404]
- firefly Hh reporter signal, replicate 1: 1.38e5
- firefly Hh reporter signal, replicate 2: 43498
- Renilla reference signal, replicate 1: 3338
- Renilla reference signal, replicate 2: 2554
- Call: inactive

Echs1 [DRSC06999]
- firefly Hh reporter signal, replicate 1: 79277
- firefly Hh reporter signal, replicate 2: 70241
- Renilla reference signal, replicate 1: 1568
- Renilla reference signal, replicate 2: 5721
- Call: inactive

CG15771 [DRSC18077]
- firefly Hh reporter signal, replicate 1: 80135
- firefly Hh reporter signal, replicate 2: 1.38e5
- Renilla reference signal, replicate 1: 3075
- Renilla reference signal, replicate 2: 5050
- Call: inactive

CG8945 [DRSC20129]
- firefly Hh reporter signal, replicate 1: 72346
- firefly Hh reporter signal, replicate 2: 2.73e5
- Renilla reference signal, replicate 1: 1617
- Renilla reference signal, replicate 2: 10788
- Call: inactive

CG8945 [DRSC20130]
- firefly Hh reporter signal, replicate 1: 69000
- firefly Hh reporter signal, replicate 2: 1.94e5
- Renilla reference signal, replicate 1: 2170
- Renilla reference signal, replicate 2: 8884
- Call: inactive

CG4757 [DRSC14130]
- firefly Hh reporter signal, replicate 1: 51987
- firefly Hh reporter signal, replicate 2: 99936
- Renilla reference signal, replicate 1: 1243
- Renilla reference signal, replicate 2: 2781
- Call: inactive

CG13367 [DRSC18485]
- firefly Hh reporter signal, replicate 1: 1.30e5
- firefly Hh reporter signal, replicate 2: 2.51e5
- Renilla reference signal, replicate 1: 4843
- Renilla reference signal, replicate 2: 10649
- Call: inactive

CG13367 [DRSC18486]
- firefly Hh reporter signal, replicate 1: 1.30e5
- firefly Hh reporter signal, replicate 2: 2.29e5
- Renilla reference signal, replicate 1: 4967
- Renilla reference signal, replicate 2: 9985
- Call: inactive

gcm [DRSC03536]
- firefly Hh reporter signal, replicate 1: 1.17e5
- firefly Hh reporter signal, replicate 2: 82250
- Renilla reference signal, replicate 1: 3052
- Renilla reference signal, replicate 2: 6059
- Call: inactive

Myt1 [DRSC11228]
- firefly Hh reporter signal, replicate 1: 60768
- firefly Hh reporter signal, replicate 2: 21061
- Renilla reference signal, replicate 1: 6034
- Renilla reference signal, replicate 2: 2308
- Call: inactive

2 entries from above, limited to “firefly Hh reporter signal, replicate 2”.
CG8945 [DRSC20130]	1.94e5
CG4757 [DRSC14130]	99936
